Experimental data from publication PMC8750328.
Where two headings read alike, the source gives them in different places. These are yes or no findings as the source states them, for the method shown. Some binding calls cover weakened binding; strength is not graded here. Blank lines part the entries; values can stand above or below the molecule they belong to.

Chains of the proteins cited; added tags and fusions are not shown. Residues count along the entry.
UniProt P0CG72, residues 1-76: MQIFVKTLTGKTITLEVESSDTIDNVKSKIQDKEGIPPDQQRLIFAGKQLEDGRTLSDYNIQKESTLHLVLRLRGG

How the values were obtained:
[1] = target: T1, Nse1(117–232), in pGBKT7 (S. pombe) (UniProt Q53EK2); assay: two-hybrid; GAL4-based; pGADT7 or pACT2 (activation domain) and pGBKT7 (DNA-binding domain) plasmids co-transformed into S. cerevisiae PJ69-4a; growth on media lacking Leu, Trp and His (without or with 1 mM 3-aminotriazole) or adenine; 3 days at 30 °C
T1 sequence: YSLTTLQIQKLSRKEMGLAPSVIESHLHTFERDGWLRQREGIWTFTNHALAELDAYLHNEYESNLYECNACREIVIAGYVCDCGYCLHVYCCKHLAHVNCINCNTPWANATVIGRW

[2] = target: T2, Nse1(97–178), in pGBKT7 (S. pombe) (UniProt Q53EK2); assay: as above
T2 sequence: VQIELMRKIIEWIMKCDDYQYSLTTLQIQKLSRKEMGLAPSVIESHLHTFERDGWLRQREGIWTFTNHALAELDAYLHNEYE

[3] = target: T3, Nse1(1–232), full-length, in pGBKT7 (S. pombe) (UniProt Q53EK2); assay: as above
T3 sequence: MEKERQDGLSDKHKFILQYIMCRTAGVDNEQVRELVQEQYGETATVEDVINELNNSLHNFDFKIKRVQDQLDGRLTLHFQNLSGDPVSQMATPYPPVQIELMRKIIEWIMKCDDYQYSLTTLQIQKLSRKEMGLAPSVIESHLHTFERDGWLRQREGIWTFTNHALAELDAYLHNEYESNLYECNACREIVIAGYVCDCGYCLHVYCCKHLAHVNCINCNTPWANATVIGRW

[4] = target: T4, Nse1-R188E, in pGBKT7 (S. pombe) (UniProt Q53EK2); assay: as above
T4 sequence: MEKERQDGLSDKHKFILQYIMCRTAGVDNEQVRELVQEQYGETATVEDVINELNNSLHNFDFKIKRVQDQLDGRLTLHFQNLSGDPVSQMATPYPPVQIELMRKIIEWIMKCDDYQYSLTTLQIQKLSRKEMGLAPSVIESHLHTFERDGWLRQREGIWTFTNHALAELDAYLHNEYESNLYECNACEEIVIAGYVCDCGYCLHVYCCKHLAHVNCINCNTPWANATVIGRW

[5] = target: T3, Nse1(1–232), full-length, in pGBKT7 (S. pombe); assay: as above; remark: listed apart in the source
[6] = target: T5, Nse1 (recombinant, of the purified Nse1/3 dimer and Nse1/3/4 trimer) (S. pombe) (UniProt Q53EK2); assay: co-purification of co-expressed proteins; S. pombe Nse1/3 dimer and Nse1/3/4 trimer each expressed from one plasmid and purified as described in ref. 22
T5 sequence: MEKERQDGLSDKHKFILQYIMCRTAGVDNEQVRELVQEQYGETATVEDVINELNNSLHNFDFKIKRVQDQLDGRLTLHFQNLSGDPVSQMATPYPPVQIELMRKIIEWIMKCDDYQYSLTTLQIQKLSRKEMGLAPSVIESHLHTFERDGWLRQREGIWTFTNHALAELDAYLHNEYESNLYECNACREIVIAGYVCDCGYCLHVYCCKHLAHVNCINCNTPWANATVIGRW

binding [1]: binds
binding [2]: binds
binding [3]: binds
Molecule: Ubiquitin, in pGADT7 (from UniProt P0CG72 1-76)

binding [4]: binds
binding [5]: binds
B1: Nse4, complete coding sequence, in pACT2 (protein, UniProt Q6BDR8 1-300)
chain: MSSIDKRDLRKRYRNLINKVQESRLELVDEENNNLYETITTANDLFSSVDAPTEATLDALLLTKTVDLASIKARQLHIGRPKFNIELFTKNIKQFLNYPTSHSNVTRIQEIDTAWSRLGKLASNCEKQPASLNLMVGPLSFRKKERNIQRRERLQKAPNVLTQPTMLNERNITTQENNTTKNVLHISRLLQAHQPVNFLKFITNPQSYPQTVENLFYVSFLFKEGKAALVENESGILMLETRIPPTDDQVVAGEIRNIQLVLDMTMDLYENIIKEYNIKESIIPTRAPVETSTNSNTWYG

binding [6]: binds
B2: Nse4 (recombinant, of the purified Nse1/3/4 trimer) (protein, UniProt Q6BDR8 1-300)
chain: MSSIDKRDLRKRYRNLINKVQESRLELVDEENNNLYETITTANDLFSSVDAPTEATLDALLLTKTVDLASIKARQLHIGRPKFNIELFTKNIKQFLNYPTSHSNVTRIQEIDTAWSRLGKLASNCEKQPASLNLMVGPLSFRKKERNIQRRERLQKAPNVLTQPTMLNERNITTQENNTTKNVLHISRLLQAHQPVNFLKFITNPQSYPQTVENLFYVSFLFKEGKAALVENESGILMLETRIPPTDDQVVAGEIRNIQLVLDMTMDLYENIIKEYNIKESIIPTRAPVETSTNSNTWYG

binding [6]: binds
B3: Nse3 (recombinant, of the purified Nse1/3 dimer and Nse1/3/4 trimer) (protein, UniProt Q9Y7U4 1-328)
chain: MSQLSFTGKSSSKGRSRLTQEVRPTASQIIADEEASDLDEYEEDLEGSGNEDDFGPSMSRSSRGRKRRKGDPLELQSQFEERNETDAINFQLLVRNVVRYAICSQTSHNTITRKDIVQKAFPEGTSRNLFQSVFEEADRQLQLSFGFRLVAVTQSNRKKDMAVSQLRRPATSNANSSNLHRYWVLRSTLPMELQKDSRLIVDSVLDTAYYGFLMTVIAFIAVSHCSVGHSELQSFLQELLTEEETTPLHLDITRSLSLLVRQGYLDRVKDDTHNQFVYYIGSRAVTEISIEGLKSFVTEFFPDSDIDMDALLTEYRQEYQNQSSSSAA
